Measured values from the supplement of paper PMC3334620.
Whole data set: some 33,000 sequences, median “E-score (-0.5 to 0.5)” near -8e-05, cut for the highest 2% near 0.23. This is one part of the list.

These sequences were tested against T1, Nrg2 (UniProt P38082) (assay: PBM E-score (8-mer binding enrichment) (E-score (-0.5 to 0.5)); higher = stronger / more preferred TF binding). Conditions: protein concentration: 100 nM; construct: GST-full length.
T1 sequence: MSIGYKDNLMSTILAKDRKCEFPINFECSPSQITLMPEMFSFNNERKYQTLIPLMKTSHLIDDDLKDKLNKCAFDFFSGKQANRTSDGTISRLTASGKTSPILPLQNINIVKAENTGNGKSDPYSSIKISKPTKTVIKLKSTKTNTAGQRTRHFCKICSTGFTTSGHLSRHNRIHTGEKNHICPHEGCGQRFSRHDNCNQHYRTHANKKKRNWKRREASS
How it was run: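 PURExpress in vitro transcription/translation supplied GST-tagged yeast transcription factors, either full-length or DNA-binding domain. Applied at about 100-200 nM to universal all-10-mer Agilent arrays double-stranded by primer extension, the bound protein was detected with fluorescent anti-GST. E-scores, modified Wilcoxon-Mann-Whitney statistics, were given by the Universal PBM Analysis Suite to ungapped eight-base words pooled with their reverse complements after masliner normalisation.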

| Sequence | PBM E-score |
| --- | --- |
| CTAACCGA | -0.0854 |
| CATTATGG | -0.117 |
| CGCATGGA | 0.00237 |
| CCTTCGCG | 0.111 |
| ATCTTGTC | 0.121 |
| CATTCCAG | -0.112 |
| GGAACCCA | 0.0556 |
| AGTGTGGC | -0.00753 |
| ATGTGGCC | 0.11 |
| GATCGAGA | 0.0356 |
| CAAAACCG | 0.0961 |
| AAGCGAGG | 0.00432 |
| CGGAATGA | 0.0468 |
| AGACAGAG | 0.0386 |
| ATGCAGCC | -0.041 |
| CGACACAC | -0.00881 |
| ATTGGTTC | 0.0808 |
| ATTGCGCA | 0.143 |
| ATACGGTC | -0.163 |
| GGACTCGA | -0.304 |
| TACCACGA | -0.0263 |
| CGAAGCTC | -0.169 |
| ACACCACC | -0.279 |
| GGCTTCTA | -0.075 |
| ATTCTGTG | 0.185 |

| Sequence | PBM E-score |
| --- | --- |
| GCCATTCC | -0.0927 |
| TAACATAA | 0.147 |
| GACCGCTA | -0.158 |
| GAATGCTA | -0.066 |
| GGTATAAA | 0.0672 |
| CCTTCATC | -0.107 |
| AGGGAAAT | 0.107 |
| CGGCAACC | -0.182 |
| CAGTCTAC | -0.272 |
| ACTACTTC | 0.0422 |
| TGCTCTAA | -0.107 |
| GATATATA | 0.247 |
| CGCTATGC | -0.00446 |
| AGGCGCAG | -0.172 |
| GTGGTGGA | -0.223 |
| CCCACAGA | -0.125 |
| CGGATAGA | 0.111 |
| ATCAGATA | 0.0611 |
| AACCTCGT | 0.0968 |
| ATCTTAGG | -0.0648 |
| AGACTAGG | -0.136 |
| GGTACCTA | -0.0206 |
| CGATTAGA | -0.0091 |
| ACCCCCCA | -0.406 |
| CTGTACTC | 0.0889 |

| Sequence | PBM E-score |
| --- | --- |
| CGACTGAA | -0.149 |
| ACAATGGA | 0.159 |
| ACGCTTCC | -0.0968 |
| CGCTCCGA | 0.163 |
| GGTGGCCA | -0.176 |
| GAAAGATA | 0.118 |
| AGTGGGCG | 0.0689 |
| CGTACTAA | 0.224 |
| AATCCGAC | 0.0893 |
| CAAGCGTG | 0.127 |
| TCTATACA | -0.0584 |
| GACTAAAC | 0.00156 |
| CCGTCCCA | -0.0451 |
| ATGCTCGA | -0.0173 |
| ATGATAAT | 0.128 |
| GGCCTGGA | -0.225 |
| CACAAGTC | -0.162 |
| TATAGCGA | -0.117 |
| GGGCCATA | -0.00217 |
| CTTCGCAA | 0.0484 |
| CACCAGCC | -0.121 |
| CTTTGACA | -0.129 |
| ACGGATAC | 0.212 |
| ACCGGTAG | -0.208 |
| TCTCTTAA | 0.123 |

An excerpt of these results, comma-delimited:
Sequence,PBM E-score
ATCAGATA,0.0611
AACCTCGT,0.0968
ATCTTAGG,-0.0648
AGACTAGG,-0.136
GGTACCTA,-0.0206
CGATTAGA,-0.0091
ACCCCCCA,-0.406

Further records:

| Sequence | PBM E-score |
| --- | --- |
| AAACATGA | -0.0382 |
| AAAGTGGC | -0.0116 |
| GATGGGTA | 0.0417 |
| AGTGTCCC | 0.0789 |
| AATAATCG | 0.139 |
| ATCAGGTC | 0.0284 |
| GCTCATAA | 0.0365 |
| ATATCTAC | 0.0734 |
| GCCTGTAA | -0.225 |
| GCGACTAA | 0.166 |
| CGGTTGTC | 0.138 |
| ATCTTCCA | -0.0745 |
| AGTTATAG | 0.0148 |
| ATTACCTA | 0.0485 |
| AGCTCGAC | -0.0667 |
| CCCAGGCC | -0.141 |
| ATATAGCC | 0.0747 |
| CGGGTAGC | -0.163 |
| CTTGGCAC | -0.0589 |
| GCCAGAAC | -0.0622 |
| ACGTTTGA | 0.136 |
| CTTGGCCA | -0.0664 |
| AGGAAGAA | -0.0201 |
| AGCTTTAC | -0.26 |
| CGTTGACA | 0.00462 |

| Sequence | PBM E-score |
| --- | --- |
| ACGGGGAC | 0.0269 |
| GAAAGAAC | 0.0456 |
| CAGAGACG | 0.0459 |
| AGTGAGAG | -0.116 |
| GCCCAGCA | -0.0115 |
| ACCGCGGA | 0.187 |
| ACTACCAA | -0.066 |
| AGATAACC | -0.128 |
| ATTAGACC | -0.3 |
| CCGCAAAA | -0.0629 |
| CCGATTCA | -0.0659 |
| CGGGCCCA | -0.128 |
| AGGACCCC | 0.183 |
| CAACGACC | -0.0624 |
| GTGGGAAA | -0.0347 |
| CTCACCCA | 0.0228 |
| CCGGGTAC | -0.0499 |
| ATTAGTAG | -0.0113 |
| GACTATCC | 0.0417 |
| ACACCTCT | 0.0761 |
| CAGAGACA | -0.109 |
| AACAACTT | 0.141 |
| GCCACGGA | -0.0858 |
| CTCCCATC | -0.0905 |
| ACACTTTG | 0.00655 |

Three entries from above in a different format:
Sequence | PBM E-score
TGCTCTAA | -0.107
GATATATA | 0.247
CGCTATGC | -0.00446

(list continues)

| Sequence | PBM E-score |
| --- | --- |
| GAATTAGA | 0.11 |
| CGGCCTCA | 0.0926 |
| ACAACTTC | 0.196 |
| AGCTCGTC | 0.00159 |
| TTATGAAA | 0.197 |
| GCTGCAAA | 0.056 |
| ATGGCTGA | -0.0555 |
| CGCCGGAC | 0.0155 |
| CAATCCTG | 0.0834 |
| CACTCCGG | 0.165 |
| AATCGAAG | 0.264 |
| CCGATGCC | -0.0207 |
| ATTTGCGG | 0.141 |
| TAGCGAGA | -0.153 |
| AGCCTAGC | -0.248 |
| AACCCTCT | -0.172 |
| CCGCGTCA | -0.252 |
| AGACCCGA | 0.137 |
| CTACACTC | -0.0863 |
| TGCTACCA | -0.123 |
| TAGCACGA | -0.01 |
| ACCTCTTG | -0.0684 |
| AACCCGAA | 0.0237 |
| CGACTTAG | -0.127 |
| AACGGCGT | -0.11 |

| Sequence | PBM E-score |
| --- | --- |
| AGTACGAG | 0.0997 |
| GCTAACTA | 0.126 |
| GCCCTAAA | -0.297 |
| ACTCTTCG | -0.13 |
| GCCCCTTA | 0.114 |
| ACTAACAT | 0.146 |
| ACTCCAGT | 0.0302 |
| GAGTTTAC | -0.0565 |
| CTACTGTC | -0.0435 |
| ACCAAACG | -0.0955 |
| GAGGTCCC | 0.0748 |
| ATATTACC | 0.193 |
| TACTAGTA | 0.149 |
| AATTATCG | 0.158 |
| TGCGCACA | 0.00373 |
| GCTAGCAA | -0.0969 |
| CGCGGGGC | 0.0564 |
| AATATAGC | 0.0275 |
| AGAAGAAA | 0.0063 |
| GAGTTCGA | 0.142 |
| AATCGGGG | -0.0292 |
| GCTCTCGA | -0.0195 |
